In the supplement of paper PMC8728848:
The other results are listed elsewhere or left out.

Tests used:
Test in all cases: glycan array binding signal (z-score within array); higher = stronger binding
Details in all cases: glycan notation: IUPAC condensed, linker removed
[1] = target: Fuc(a1-2)Gal
Procedure, shortened: (§1)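 Negative Z-scores can be read as non-binding. The Z-score is calculated within each array and then averaged across arrays of one protein sequence at different concentrations or buffers and across linkers. Arrays, 3228 in all, were curated from the Consortium for Functional Glycomics database and kept only where the protein sequence was available.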

[2] = target: Fuc(a1-2)Gal(b1-3)GalNAc
Procedure, shortened: as §1

[3] = target: Fuc(a1-2)Gal(b1-3)GalNAc(a1-3)[Fuc(a1-2)]Gal(b1-4)Glc
Procedure, shortened: as §1

[4] = target: Fuc(a1-2)Gal(b1-3)GalNAc(a1-3)[Fuc(a1-2)]Gal(b1-4)GlcNAc
Procedure, shortened: as §1

[5] = target: Fuc(a1-2)Gal(b1-3)GalNAc(b1-3)Gal
Procedure, shortened: as §1

[6] = target: Fuc(a1-2)Gal(b1-3)GalNAc(b1-3)Gal(a1-4)Gal(b1-4)Glc
Procedure, shortened: as §1

[7] = target: Fuc(a1-2)Gal(b1-3)GalNAc(b1-4)[Neu5Ac(a2-3)]Gal(b1-4)Glc
Procedure, shortened: as §1

[8] = target: Fuc(a1-2)Gal(b1-3)GlcNAc
Procedure, shortened: as §1

[9] = target: Fuc(a1-2)Gal(b1-3)GlcNAc(b1-2)Man(a1-3)[Fuc(a1-2)Gal(b1-3)GlcNAc(b1-2)Man(a1-6)]Man(b1-4)GlcNAc(b1-4)GlcNAc
Procedure, shortened: as §1

[10] = target: Fuc(a1-2)Gal(b1-3)GlcNAc(b1-3)Gal(b1-4)Glc
Procedure, shortened: as §1

[11] = target: Fuc(a1-2)Gal(b1-3)GlcNAc(b1-3)[Fuc(a1-3)[Gal(b1-4)]GlcNAc(b1-6)]Gal(b1-4)Glc
Procedure, shortened: as §1

[12] = target: Fuc(a1-2)Gal(b1-3)[Fuc(a1-4)]GlcNAc
Procedure, shortened: as §1

[13] = target: Fuc(a1-2)Gal(b1-3)[Fuc(a1-4)]GlcNAc(b1-2)Man(a1-3)[Fuc(a1-2)Gal(b1-3)[Fuc(a1-4)]GlcNAc(b1-2)Man(a1-6)]Man(b1-4)GlcNAc(b1-4)GlcNAc
Procedure, shortened: as §1

[14] = target: Fuc(a1-2)Gal(b1-3)[Fuc(a1-4)]GlcNAc(b1-3)[Fuc(a1-3)[Gal(b1-4)]GlcNAc(b1-6)]Gal(b1-4)Glc
Procedure, shortened: as §1

[15] = target: Fuc(a1-2)Gal(b1-3)[Fuc(a1-4)]GlcNAc(b1-3)[Gal(b1-4)GlcNAc(b1-6)]Gal(b1-4)Glc
Procedure, shortened: as §1

[16] = target: Fuc(a1-2)Gal(b1-4)Glc
Procedure, shortened: as §1

[17] = target: Fuc(a1-2)Gal(b1-4)Glc6S
Procedure, shortened: as §1

[18] = target: Fuc(a1-2)Gal(b1-4)GlcNAc
Procedure, shortened: as §1

[19] = target: Fuc(a1-2)Gal(b1-4)GlcNAc(b1-2)Man(a1-3)[Fuc(a1-2)Gal(b1-4)GlcNAc(b1-2)Man(a1-6)]Man(b1-4)GlcNAc(b1-4)GlcNAc
Procedure, shortened: as §1

[20] = target: Fuc(a1-2)Gal(b1-4)GlcNAc(b1-3)Gal(b1-4)GlcNAc
Procedure, shortened: as §1

[21] = target: Fuc(a1-2)Gal(b1-4)GlcNAc(b1-3)Gal(b1-4)GlcNAc(b1-3)Gal(b1-4)GlcNAc
Procedure, shortened: as §1

[22] = target: Fuc(a1-2)Gal(b1-4)GlcNAc(b1-3)GalNAc
Procedure, shortened: as §1

[23] = target: Fuc(a1-2)Gal(b1-4)GlcNAc6S
Procedure, shortened: as §1

[24] = target: Fuc(a1-2)Gal(b1-4)[Fuc(a1-3)]GlcNAc
Procedure, shortened: as §1

[25] = target: Fuc(a1-2)Gal(b1-4)[Fuc(a1-3)]GlcNAc(b1-2)Man(a1-3)[Fuc(a1-2)Gal(b1-4)[Fuc(a1-3)]GlcNAc(b1-2)Man(a1-6)]Man(b1-4)GlcNAc(b1-4)GlcNAc
Procedure, shortened: as §1

[26] = target: Fuc(a1-2)Gal(b1-4)[Fuc(a1-3)]GlcNAc(b1-3)Gal(b1-4)[Fuc(a1-3)]GlcNAc
Procedure, shortened: as §1

[27] = target: Fuc(a1-2)Gal(b1-4)[Fuc(a1-3)]GlcNAc(b1-3)Gal(b1-4)[Fuc(a1-3)]GlcNAc(b1-3)Gal(b1-4)[Fuc(a1-3)]GlcNAc
Procedure, shortened: as §1

[28] = target: Fuc(a1-2)Gal6S(b1-4)Glc
Procedure, shortened: as §1

[29] = target: Fuc(a1-2)Gal6S(b1-4)Glc6S
Procedure, shortened: as §1

[30] = target: Fuc(a1-2)Gal6S(b1-4)GlcNAc
Procedure, shortened: as §1

B1: PEB1 (Campylobacter jejuni), Q0P9X8 (protein)
chain: MVFRKSLLKLAVFALGACVAFSNANAAEGKLESIKSKGQLIVGVKNDVPHYALLDQATGEIKGFEVDVAKLLAKSILGDDKKIKLVAVNAKTRGPLLDNGSVDAVIATFTITPERKRIYNFSEPYYQDAIGLLVLKEKKYKSLADMKGANIGVAQAATTKKAIGEAAKKIGIDVKFSEFPDYPSIKAALDAKRVDAFSVDKSILLGYVDDKSEILPDSFEPQSYGIVTKKDDPAFAKYVDDFVKEHKNEIDALAKKWGL
glycan array binding signal (z-score) [1]: 0.886 | glycan array binding signal (z-score) [2]: 0.281 | glycan array binding signal (z-score) [3]: -0.113 | glycan array binding signal (z-score) [4]: -0.166 | glycan array binding signal (z-score) [5]: -1.64 | glycan array binding signal (z-score) [6]: -0.23 | glycan array binding signal (z-score) [7]: 0.131 | glycan array binding signal (z-score) [8]: 0.973 | glycan array binding signal (z-score) [9]: 0.653 | glycan array binding signal (z-score) [10]: 0.624 | glycan array binding signal (z-score) [11]: -0.515 | glycan array binding signal (z-score) [12]: 1.23 | glycan array binding signal (z-score) [13]: 1.86 | glycan array binding signal (z-score) [14]: 0.58 | glycan array binding signal (z-score) [15]: -0.116 | glycan array binding signal (z-score) [16]: -0.354 | glycan array binding signal (z-score) [17]: 1.42 | glycan array binding signal (z-score) [18]: 0.143 | glycan array binding signal (z-score) [19]: -0.012 | glycan array binding signal (z-score) [20]: -0.874 | glycan array binding signal (z-score) [21]: 2.36 | glycan array binding signal (z-score) [22]: 0.452 | glycan array binding signal (z-score) [23]: -0.084 | glycan array binding signal (z-score) [24]: 0.977 | glycan array binding signal (z-score) [25]: 2.2 | glycan array binding signal (z-score) [26]: 0.127 | glycan array binding signal (z-score) [27]: 0.705 | glycan array binding signal (z-score) [28]: 1.04 | glycan array binding signal (z-score) [29]: -0.038 | glycan array binding signal (z-score) [30]: 0.768
